This is an account of results in US20080281408A1.

The chains behind the UniProt entries cited, without tags or fusion partners. Where a name states a change or a piece, a line headed by the entry shows the natural chain unless it says otherwise. Residues count along the entry.
UniProt P02453: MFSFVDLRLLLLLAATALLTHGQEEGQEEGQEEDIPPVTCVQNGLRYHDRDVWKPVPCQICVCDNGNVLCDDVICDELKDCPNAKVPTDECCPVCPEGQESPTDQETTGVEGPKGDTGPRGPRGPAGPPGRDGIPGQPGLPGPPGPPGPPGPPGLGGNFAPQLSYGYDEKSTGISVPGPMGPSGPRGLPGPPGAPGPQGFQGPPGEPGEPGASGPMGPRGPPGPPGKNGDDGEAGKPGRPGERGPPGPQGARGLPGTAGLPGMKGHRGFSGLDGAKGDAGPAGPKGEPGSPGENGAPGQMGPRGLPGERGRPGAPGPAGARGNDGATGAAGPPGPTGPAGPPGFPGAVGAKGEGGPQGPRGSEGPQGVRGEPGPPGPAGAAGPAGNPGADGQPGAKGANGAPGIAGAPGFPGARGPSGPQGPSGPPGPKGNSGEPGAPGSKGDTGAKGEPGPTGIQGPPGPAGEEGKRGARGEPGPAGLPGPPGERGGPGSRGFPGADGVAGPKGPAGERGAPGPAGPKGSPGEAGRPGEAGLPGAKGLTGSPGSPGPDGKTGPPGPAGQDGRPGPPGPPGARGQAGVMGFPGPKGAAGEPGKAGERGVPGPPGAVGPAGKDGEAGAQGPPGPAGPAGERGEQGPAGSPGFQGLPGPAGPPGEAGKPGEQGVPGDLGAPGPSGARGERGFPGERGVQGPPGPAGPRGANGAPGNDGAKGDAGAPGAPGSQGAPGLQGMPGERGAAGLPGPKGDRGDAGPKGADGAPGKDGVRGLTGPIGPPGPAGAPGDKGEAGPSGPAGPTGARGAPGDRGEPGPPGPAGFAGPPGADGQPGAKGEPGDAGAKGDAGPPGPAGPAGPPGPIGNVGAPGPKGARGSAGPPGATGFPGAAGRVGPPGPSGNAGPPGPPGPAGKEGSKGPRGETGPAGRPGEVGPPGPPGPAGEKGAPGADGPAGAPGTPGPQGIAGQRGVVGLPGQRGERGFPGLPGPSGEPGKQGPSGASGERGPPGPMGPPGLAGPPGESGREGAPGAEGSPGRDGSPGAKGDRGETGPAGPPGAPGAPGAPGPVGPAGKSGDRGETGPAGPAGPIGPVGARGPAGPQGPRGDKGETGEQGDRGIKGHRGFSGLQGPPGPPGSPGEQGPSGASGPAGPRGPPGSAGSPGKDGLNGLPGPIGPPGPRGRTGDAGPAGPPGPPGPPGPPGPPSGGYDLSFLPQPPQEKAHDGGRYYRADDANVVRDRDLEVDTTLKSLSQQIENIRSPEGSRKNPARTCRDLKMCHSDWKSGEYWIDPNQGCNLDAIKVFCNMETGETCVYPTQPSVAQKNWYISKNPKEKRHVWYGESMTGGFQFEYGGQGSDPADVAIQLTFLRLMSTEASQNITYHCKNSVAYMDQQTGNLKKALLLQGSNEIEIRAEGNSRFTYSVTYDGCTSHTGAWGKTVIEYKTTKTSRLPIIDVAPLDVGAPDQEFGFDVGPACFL
UniProt P02465: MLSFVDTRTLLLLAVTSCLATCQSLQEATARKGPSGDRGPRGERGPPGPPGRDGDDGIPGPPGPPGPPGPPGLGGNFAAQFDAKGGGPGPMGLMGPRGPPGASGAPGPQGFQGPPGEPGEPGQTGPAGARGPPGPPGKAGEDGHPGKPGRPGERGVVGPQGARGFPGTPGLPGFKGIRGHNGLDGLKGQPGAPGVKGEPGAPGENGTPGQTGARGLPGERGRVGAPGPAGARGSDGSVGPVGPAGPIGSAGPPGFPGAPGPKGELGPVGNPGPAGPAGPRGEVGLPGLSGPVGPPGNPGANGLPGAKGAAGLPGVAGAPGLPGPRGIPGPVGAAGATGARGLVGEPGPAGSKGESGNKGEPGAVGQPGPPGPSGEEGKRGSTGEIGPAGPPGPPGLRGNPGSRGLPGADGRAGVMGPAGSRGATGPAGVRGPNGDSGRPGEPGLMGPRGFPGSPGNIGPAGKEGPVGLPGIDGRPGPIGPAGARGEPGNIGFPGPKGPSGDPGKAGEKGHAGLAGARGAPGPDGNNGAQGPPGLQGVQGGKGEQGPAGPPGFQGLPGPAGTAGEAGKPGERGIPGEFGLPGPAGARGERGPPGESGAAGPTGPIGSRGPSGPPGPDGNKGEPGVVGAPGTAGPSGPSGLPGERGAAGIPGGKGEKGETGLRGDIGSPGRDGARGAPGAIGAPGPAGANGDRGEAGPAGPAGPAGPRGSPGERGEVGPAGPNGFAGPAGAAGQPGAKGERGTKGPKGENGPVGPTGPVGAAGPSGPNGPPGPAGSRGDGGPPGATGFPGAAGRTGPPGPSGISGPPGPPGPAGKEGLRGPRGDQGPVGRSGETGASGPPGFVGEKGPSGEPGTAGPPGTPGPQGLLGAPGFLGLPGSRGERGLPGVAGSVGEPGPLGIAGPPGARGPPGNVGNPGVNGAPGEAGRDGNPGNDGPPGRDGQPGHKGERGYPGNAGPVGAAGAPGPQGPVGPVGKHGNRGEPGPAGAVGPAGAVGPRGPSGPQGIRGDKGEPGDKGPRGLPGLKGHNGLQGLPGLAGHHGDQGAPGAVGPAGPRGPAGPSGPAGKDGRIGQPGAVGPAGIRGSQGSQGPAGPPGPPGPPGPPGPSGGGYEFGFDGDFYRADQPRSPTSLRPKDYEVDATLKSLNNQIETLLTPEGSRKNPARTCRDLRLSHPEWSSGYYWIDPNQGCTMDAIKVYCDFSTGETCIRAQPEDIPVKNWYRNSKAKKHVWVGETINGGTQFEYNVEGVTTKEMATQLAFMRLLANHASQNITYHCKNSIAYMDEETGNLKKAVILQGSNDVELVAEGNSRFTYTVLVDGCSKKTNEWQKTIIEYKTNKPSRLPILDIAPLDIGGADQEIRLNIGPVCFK
UniProt P14210, residues 32-728: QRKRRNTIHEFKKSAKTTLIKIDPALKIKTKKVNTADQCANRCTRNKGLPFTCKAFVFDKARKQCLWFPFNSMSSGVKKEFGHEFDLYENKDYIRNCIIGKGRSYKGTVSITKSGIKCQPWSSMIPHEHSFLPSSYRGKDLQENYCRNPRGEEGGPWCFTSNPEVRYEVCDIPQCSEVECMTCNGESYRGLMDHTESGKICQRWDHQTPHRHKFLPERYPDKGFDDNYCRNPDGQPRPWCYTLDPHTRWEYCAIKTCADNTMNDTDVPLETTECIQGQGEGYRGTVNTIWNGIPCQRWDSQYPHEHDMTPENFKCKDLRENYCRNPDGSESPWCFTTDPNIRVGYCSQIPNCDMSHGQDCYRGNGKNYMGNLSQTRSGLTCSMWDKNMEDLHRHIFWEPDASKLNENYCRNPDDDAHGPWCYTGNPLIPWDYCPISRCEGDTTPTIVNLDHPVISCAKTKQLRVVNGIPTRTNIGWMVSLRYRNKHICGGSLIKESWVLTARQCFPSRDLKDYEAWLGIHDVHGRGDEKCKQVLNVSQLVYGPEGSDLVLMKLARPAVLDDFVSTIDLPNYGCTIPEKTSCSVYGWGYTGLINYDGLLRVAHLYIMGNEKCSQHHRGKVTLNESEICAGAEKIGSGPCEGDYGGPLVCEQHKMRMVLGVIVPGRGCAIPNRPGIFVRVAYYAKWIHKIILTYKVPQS

Results are given in words; binding and its absence hold for the method and conditions named. Some results given as binding are weak or reduced against the parent protein; the word gives no strength.

Assay [1] has as its target T1, type 1 collagen (bovine) (CELLGEN, Koken Co., Ltd.) (bovine) (UniProt P02453+P02465). As to the kind of experiment: ELISA on collagen-coated plate, detection with anti-HGF antibody.
The target in assay [2] is T1, type 1 collagen (bovine) (CELLGEN, Koken Co., Ltd.) (bovine). As to the kind of experiment: ELISA on collagen-coated plate, detection with anti-human HGF antibody. For orientation: An ELISA detects its analyte on a solid surface through an enzyme-linked reagent.

For “HGF (TOYOBO HGF-101, CHO cell expressing recombinant protein) (from UniProt P14210 32-728) (ligand)”, the binding result in assay [1] and in assay [2] was “binds” each time.
